Measured values from patent publication US4327114A, “Substituted 1,8-dihydroxy-9-(10H)anthracenones” (Boehringer Ingelheim GmbH, priority 1980, dated 1982).
Some entries repeat one wording, which the source may state once for all of them.

Test system: skin (forearms of volunteer human test subjects)
Assay: Orienting skin compatibility in humans (ointments on forearm)
Format: in vivo
Conditions: 0.44% ointment
Procedure: Ointments, each containing individually 0.44% of compounds […] and K were applied to the forearms of volunteer human test subjects, covered with bandage gauze and allowed to remain on the skin for 16 hours. After 16 hours the ointments were washed off with soap solution, and the skin irritation and discoloration, if any, were evaluated visually and photographed. Then, the test ointments were again administered and allowed to remain on the skin until the next day. Again, the reactions were evaluated and a new treatment was started.

| SMILES | discoloration of the bandage gauze |
| --- | --- |
| O=C1c2c(O)cccc2Cc2cccc(O)c21 [Compound A, 1,8-Dihydroxy-9-(10H)anthracenone] | irreversibly discolored violet |
| O=C1c2c(O)ccc(Cl)c2Cc2c(Cl)ccc(O)c21 [Compound C, 4,5-Dichloro-1,8-dihydroxy-9-(10H)anthracenone] | no discoloration could be noticed |
| CC(C)c1ccc(O)c2c1Cc1cccc(O)c1C2=O [Compound F, 1,8-Dihydroxy-4-isopropyl-9-(10H)anthracenone] | no discoloration could be noticed |
| CC(C)(C)c1ccc2c(c1O)C(=O)c1c(ccc(C(C)(C)C)c1O)C2 [Compound K, 2,7-Di-tert. butyl-1,8-dihydroxy-9-(10H)anthracenone] | no discoloration could be noticed |
| CC(C)(C)c1ccc2c(c1O)C(=O)c1c(O)cccc1C2 [D, 2-tert. Butyl-1,8-dihydroxy-9-(10H)anthracenone] | no discoloration could be noticed |
| CCCCC(C)c1ccc2c(c1O)C(=O)c1c(O)cccc1C2 (stereo not shown) [E, 2-(2-Hexyl)-1,8-dihydroxy-9-(10H)anthracenone] | no discoloration could be noticed |
| CC(C)c1cc(C(C)C)c2c(c1O)C(=O)c1c(O)cccc1C2 [G, 1,8-Dihydroxy-2,4-diisopropyl-9-(10H)anthracenone] | no discoloration could be noticed |
